Assay results published in the supplement of paper PMC10849652.
The other results are listed elsewhere or left out.

Protein sequences, listed by entry. Tags and fused reporters are not part of them. Lines headed by an entry give the natural chain unless they say otherwise; changes in a name come on top.
UniProt Q9UHV7: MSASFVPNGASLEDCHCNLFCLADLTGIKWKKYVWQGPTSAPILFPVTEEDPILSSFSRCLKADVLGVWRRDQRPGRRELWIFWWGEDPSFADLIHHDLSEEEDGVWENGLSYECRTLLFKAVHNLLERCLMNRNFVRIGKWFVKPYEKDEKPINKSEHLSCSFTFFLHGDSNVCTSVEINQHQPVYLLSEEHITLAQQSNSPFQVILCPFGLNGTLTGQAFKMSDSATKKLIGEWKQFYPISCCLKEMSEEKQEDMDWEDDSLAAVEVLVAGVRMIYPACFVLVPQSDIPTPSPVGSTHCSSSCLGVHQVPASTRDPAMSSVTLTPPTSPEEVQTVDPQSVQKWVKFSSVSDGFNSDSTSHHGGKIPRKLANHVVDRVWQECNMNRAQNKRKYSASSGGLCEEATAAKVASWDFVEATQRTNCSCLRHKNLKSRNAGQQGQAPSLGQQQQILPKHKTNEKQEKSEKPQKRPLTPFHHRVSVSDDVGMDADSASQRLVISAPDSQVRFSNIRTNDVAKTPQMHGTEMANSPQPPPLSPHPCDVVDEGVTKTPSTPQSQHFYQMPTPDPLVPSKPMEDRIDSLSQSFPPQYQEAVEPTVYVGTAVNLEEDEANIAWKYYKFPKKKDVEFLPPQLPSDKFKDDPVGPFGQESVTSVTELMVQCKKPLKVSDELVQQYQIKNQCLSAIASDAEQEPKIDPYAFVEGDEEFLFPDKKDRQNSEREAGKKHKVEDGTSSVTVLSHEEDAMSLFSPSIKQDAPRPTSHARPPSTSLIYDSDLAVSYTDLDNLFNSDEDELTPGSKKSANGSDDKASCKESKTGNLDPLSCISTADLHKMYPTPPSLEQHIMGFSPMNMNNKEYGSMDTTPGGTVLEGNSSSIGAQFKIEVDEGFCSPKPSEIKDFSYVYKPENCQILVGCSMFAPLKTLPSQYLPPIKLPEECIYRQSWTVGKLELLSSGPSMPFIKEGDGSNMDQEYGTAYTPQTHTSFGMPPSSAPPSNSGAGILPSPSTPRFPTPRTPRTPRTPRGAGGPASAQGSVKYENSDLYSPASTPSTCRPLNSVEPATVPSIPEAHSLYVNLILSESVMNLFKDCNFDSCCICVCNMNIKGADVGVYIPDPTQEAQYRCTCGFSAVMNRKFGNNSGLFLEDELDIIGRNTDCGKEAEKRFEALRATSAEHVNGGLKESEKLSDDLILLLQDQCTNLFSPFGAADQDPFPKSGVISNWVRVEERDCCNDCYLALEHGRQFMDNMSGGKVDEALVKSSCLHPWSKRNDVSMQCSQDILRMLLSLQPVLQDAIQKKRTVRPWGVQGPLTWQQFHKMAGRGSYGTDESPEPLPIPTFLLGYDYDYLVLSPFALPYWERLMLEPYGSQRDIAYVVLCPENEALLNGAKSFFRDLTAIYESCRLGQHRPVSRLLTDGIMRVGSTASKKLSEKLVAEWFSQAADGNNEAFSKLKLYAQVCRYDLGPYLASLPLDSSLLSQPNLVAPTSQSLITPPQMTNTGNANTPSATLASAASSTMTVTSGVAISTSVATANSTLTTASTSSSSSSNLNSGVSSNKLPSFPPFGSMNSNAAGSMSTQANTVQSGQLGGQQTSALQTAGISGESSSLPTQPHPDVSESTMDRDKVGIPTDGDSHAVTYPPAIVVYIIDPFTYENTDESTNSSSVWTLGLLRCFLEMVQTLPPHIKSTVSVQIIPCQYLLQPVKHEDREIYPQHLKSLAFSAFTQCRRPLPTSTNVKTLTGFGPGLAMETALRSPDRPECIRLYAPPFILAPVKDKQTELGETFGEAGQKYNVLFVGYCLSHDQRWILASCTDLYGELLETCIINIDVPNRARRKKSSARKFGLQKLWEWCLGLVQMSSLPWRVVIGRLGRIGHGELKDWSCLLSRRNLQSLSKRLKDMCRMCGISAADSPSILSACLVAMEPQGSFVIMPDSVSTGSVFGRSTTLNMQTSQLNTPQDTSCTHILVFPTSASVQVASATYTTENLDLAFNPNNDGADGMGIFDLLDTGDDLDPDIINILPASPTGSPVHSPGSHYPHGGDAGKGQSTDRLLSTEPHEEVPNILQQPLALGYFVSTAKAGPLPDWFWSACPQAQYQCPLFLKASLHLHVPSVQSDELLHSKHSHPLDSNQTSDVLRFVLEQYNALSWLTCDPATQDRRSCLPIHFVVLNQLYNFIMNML
UniProt Q5TF39: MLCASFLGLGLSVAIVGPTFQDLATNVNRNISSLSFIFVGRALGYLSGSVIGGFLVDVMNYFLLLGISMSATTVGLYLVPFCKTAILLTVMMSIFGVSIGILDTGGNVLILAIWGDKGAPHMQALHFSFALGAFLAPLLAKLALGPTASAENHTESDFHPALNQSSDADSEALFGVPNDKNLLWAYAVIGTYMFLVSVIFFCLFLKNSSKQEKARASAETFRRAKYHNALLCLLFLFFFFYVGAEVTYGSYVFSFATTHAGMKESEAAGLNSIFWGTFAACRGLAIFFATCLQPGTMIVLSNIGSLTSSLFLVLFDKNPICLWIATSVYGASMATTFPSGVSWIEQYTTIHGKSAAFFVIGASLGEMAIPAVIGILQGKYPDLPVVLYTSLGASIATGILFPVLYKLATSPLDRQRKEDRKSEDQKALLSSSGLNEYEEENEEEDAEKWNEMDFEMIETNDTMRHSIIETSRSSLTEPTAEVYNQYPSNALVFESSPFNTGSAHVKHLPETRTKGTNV
UniProt Q9BV79: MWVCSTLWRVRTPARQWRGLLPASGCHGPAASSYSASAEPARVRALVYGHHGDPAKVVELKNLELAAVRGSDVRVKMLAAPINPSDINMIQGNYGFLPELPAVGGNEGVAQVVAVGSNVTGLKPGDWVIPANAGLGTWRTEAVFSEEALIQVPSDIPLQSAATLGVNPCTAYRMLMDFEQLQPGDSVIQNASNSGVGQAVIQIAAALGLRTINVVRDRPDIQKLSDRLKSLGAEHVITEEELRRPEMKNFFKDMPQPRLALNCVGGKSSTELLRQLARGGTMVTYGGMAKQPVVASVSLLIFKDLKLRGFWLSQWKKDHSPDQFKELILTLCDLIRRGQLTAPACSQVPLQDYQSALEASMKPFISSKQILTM
UniProt Q9BQP7: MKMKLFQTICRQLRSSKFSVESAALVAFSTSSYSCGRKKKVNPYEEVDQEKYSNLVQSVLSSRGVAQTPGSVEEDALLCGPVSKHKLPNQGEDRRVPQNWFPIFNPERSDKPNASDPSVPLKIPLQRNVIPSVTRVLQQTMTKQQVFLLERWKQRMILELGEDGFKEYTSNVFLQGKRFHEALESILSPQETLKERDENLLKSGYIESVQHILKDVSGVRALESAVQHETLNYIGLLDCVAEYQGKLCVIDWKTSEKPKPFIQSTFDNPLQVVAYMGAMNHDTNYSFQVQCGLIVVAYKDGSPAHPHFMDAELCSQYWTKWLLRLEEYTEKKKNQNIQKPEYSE
UniProt Q09328: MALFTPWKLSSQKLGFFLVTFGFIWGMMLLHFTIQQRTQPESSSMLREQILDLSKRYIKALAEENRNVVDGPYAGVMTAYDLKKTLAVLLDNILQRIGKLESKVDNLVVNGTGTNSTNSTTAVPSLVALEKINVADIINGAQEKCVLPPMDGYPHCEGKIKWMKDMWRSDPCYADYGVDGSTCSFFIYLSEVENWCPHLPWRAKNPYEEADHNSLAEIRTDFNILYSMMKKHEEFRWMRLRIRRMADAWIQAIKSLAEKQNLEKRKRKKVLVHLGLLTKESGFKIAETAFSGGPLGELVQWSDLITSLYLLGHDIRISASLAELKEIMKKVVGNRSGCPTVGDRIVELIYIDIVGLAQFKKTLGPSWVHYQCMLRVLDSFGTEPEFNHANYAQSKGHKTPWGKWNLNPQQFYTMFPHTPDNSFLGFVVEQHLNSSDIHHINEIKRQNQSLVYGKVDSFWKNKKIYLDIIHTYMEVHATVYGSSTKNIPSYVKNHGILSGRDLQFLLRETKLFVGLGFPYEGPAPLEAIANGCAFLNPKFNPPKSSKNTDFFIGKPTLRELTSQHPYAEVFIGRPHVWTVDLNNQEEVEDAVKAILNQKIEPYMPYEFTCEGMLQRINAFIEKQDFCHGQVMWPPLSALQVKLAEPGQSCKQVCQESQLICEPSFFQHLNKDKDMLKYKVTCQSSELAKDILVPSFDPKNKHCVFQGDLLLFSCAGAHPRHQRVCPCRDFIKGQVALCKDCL
UniProt Q14566: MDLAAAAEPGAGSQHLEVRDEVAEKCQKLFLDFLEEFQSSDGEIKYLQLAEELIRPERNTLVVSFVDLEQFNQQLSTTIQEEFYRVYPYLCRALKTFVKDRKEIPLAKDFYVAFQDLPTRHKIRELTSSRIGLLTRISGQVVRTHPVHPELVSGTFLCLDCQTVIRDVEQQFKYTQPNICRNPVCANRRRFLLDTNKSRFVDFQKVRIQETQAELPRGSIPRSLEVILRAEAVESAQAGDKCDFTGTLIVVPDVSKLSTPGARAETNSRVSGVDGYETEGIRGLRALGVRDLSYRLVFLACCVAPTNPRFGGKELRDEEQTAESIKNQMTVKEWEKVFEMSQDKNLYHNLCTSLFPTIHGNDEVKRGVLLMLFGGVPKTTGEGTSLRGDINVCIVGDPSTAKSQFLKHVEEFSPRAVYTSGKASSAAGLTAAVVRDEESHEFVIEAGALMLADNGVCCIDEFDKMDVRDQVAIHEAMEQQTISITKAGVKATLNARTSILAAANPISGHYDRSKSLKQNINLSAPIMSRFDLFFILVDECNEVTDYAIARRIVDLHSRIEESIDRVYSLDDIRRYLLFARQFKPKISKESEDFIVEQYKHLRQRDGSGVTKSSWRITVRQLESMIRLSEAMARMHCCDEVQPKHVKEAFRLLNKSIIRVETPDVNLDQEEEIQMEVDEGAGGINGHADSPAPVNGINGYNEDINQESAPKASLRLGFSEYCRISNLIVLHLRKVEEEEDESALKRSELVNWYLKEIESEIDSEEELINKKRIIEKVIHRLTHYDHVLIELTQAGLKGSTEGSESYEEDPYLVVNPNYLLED
UniProt Q86W50: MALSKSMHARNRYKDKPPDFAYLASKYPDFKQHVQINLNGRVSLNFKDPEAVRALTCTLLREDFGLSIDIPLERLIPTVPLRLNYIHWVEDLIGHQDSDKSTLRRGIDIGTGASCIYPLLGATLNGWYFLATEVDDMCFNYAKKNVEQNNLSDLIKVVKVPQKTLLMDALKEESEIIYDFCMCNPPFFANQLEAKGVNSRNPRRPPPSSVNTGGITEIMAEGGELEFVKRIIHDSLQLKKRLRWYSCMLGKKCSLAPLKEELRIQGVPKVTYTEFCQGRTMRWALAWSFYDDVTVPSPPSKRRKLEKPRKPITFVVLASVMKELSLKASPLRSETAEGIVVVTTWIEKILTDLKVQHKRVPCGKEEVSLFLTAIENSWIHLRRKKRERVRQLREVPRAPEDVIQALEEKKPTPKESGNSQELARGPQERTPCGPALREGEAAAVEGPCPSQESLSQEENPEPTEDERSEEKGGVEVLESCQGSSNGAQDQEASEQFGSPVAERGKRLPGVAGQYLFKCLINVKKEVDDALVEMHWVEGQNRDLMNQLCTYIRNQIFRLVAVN
UniProt Q68D91: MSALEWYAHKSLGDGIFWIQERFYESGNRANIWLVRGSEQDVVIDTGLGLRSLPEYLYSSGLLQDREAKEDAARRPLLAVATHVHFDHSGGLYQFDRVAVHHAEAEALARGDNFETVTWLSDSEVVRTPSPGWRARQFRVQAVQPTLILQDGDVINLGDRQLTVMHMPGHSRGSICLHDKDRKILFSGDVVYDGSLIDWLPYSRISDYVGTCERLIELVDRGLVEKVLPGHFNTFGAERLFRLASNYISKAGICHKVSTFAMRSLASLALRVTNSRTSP
UniProt Q96RQ3: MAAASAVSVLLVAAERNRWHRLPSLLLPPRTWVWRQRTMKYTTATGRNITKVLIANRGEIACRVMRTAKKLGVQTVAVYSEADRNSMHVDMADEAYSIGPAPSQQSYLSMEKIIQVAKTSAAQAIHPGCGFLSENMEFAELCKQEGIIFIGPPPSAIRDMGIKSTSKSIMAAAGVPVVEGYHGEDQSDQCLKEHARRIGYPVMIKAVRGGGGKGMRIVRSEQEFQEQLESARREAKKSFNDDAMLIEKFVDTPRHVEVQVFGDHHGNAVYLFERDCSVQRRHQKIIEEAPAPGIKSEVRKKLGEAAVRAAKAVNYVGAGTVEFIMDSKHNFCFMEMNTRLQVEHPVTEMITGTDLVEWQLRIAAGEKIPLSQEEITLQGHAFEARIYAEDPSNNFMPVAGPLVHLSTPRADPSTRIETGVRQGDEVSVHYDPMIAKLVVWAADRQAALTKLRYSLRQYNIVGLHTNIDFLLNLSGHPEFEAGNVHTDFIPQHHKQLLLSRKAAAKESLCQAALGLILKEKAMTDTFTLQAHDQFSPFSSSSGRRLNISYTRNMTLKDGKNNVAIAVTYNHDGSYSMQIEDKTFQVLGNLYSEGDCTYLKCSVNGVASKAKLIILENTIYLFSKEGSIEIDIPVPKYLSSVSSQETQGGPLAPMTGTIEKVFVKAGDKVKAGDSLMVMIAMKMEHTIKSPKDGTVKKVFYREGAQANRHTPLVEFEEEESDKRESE

Columns and labels:
Experiment in all cases: log2 fold change, soluble protein after heating vs DMSO (PISA); higher = thermal stabilisation; K562 cells, 10 uM, 30 min; active = over 0.2 and 3.5 SD of the protein, either way, in both replicates (recomputed)
[1] = compound: COC1=CC=C(C=C1)CN2C=CC3=C2C=C(C=C3)C(=O)NO
Outline: (§1)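 Aliquots of K562 cells (2×10^6 cells/mL) treated with 10 μM compound for 30 min were heated for 3 min over 48°C-58°C. After pooling and extraction in PBS with 0.5% NP-40 at 4°C, soluble protein from a 21,000xg, 90 min spin was quantified by TMTpro 16plex LC-MS/MS with channel sums equalised. Thermal stability is expressed against control samples, from duplicates, as a log2 fold change.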

[2] = compound: CON(C)C(=O)N1N=C(c2cc(F)ccc2F)S[C@@]1(CCCN)c1ccccc1 [filanesib]
Outline: as §1

[3] = compound: CO[C@H]1C[C@@H]2CC[C@@H](C)[C@@](O)(O2)C(=O)C(=O)N2CCCC[C@H]2C(=O)O[C@H]([C@H](C)C[C@@H]2CC[C@H](n3cnnn3)[C@H](OC)C2)CC(=O)[C@H](C)/C=C(\C)[C@@H](O)[C@@H](OC)C(=O)[C@H](C)C[C@H](C)/C=C/C=C/C=C/1C [zotarolimus]
Outline: as §1

[4] = compound: COc1cc(C(=O)O)ccc1NC(=O)[C@@H]1N[C@@H](CC(C)(C)C)[C@](C#N)(c2ccc(Cl)cc2F)[C@H]1c1cccc(Cl)c1F [idasanutlin]
Outline: as §1

[5] = compound: COc1cc(Nc2ncc3c(n2)-c2ccc(Cl)cc2C(c2c(F)cccc2OC)=NC3)ccc1C(=O)O [alisertib]
Outline: as §1

[6] = compound: COc1cc2nc(-c3cc(F)ccc3O)nc(N[C@@H]3CNC[C@H]3C(C)(C)O)c2cc1OC
Outline: as §1

[7] = compound: COc1cc2ncnc(Nc3ccc(F)c(Cl)c3)c2cc1OCCCN1CCOCC1 [gefitinib]
Outline: as §1

[8] = compound: COc1cccc2cc(-c3nc([C@H]4CC[C@H](C(=O)O)CC4)n4ncnc(N)c34)[nH]c12
Outline: as §1

[9] = compound: CS(=O)(=O)CCNCc1ccc(-c2ccc3ncnc(Nc4ccc(OCc5cccc(F)c5)c(Cl)c4)c3c2)o1 [lapatinib]
Outline: as §1

[10] = compound: CS(=O)(=O)N1CCN(Cc2cc3nc(-c4cccc5[nH]ncc45)nc(N4CCOCC4)c3s2)CC1 [pictilisib]
Outline: as §1

[11] = compound: CS(=O)(=O)c1ccc(-c2cnc(N)c(C(=O)Nc3ccccc3)n2)cc1
Outline: as §1

[12] = compound: C[C@@H](Oc1cc(-c2cnn(C3CCNCC3)c2)cnc1N)c1c(Cl)ccc(F)c1Cl [crizotinib]
Outline: as §1

[13] = compound: C[C@@H]1COCCN1C2=NC(=NC(=C2)C3(CC3)S(=O)(=O)C)C4=C5C=CNC5=CC=C4
Outline: as §1

[14] = compound: C[C@H](C1=CC=C(C=C1)C(=O)NC2=C3C=CNC3=NC=C2)N
Outline: as §1

[15] = compound: Cc1cc(Nc2cc(CN3CCOCC3)c3nc(C)c(Cc4ccc(Cl)cc4F)n3n2)n[nH]1 [gandotinib]
Outline: as §1

[16] = compound: Cc1cc(SCc2sc(-c3ccc(C(F)(F)F)cc3)nc2C)ccc1OCC(=O)O
Outline: as §1

[17] = compound: Cc1ccc(-n2nc(C(C)(C)C)cc2NC(=O)Nc2ccc(OCCN3CCOCC3)c3ccccc23)cc1 [doramapimod]
Outline: as §1

[18] = compound: Cc1ccc(C(=O)N(CCCN)[C@@H](c2nc3cc(Cl)ccc3c(=O)n2Cc2ccccc2)C(C)C)cc1 [ispinesib]
Outline: as §1

[19] = compound: C[C@H](Nc1ncnc2nc[nH]c12)c1cc2cccc(Cl)c2c(=O)n1-c1ccccc1 [duvelisib]
Outline: as §1

[20] = compound: Cc1cc(Nc2cc(N3CCN(C)CC3)nc(Sc3ccc(NC(=O)C4CC4)cc3)n2)n[nH]1 [tozasertib]
Outline: as §1

Row | Target | log2 fold change [1] | log2 fold change [2] | log2 fold change [3] | log2 fold change [4] | log2 fold change [5] | log2 fold change [6] | log2 fold change [7] | log2 fold change [8] | log2 fold change [9] | log2 fold change [10] | log2 fold change [11] | log2 fold change [12] | log2 fold change [13] | log2 fold change [14] | log2 fold change [15] | log2 fold change [16] | log2 fold change [17] | log2 fold change [18] | log2 fold change [19] | log2 fold change [20]
1 | MCL1 (UniProt Q07820) | inactive: -0.092 | inactive: 0.029 | inactive: 0.093 | inactive: 0.145 | inactive: -0.12 | active: -0.442 | inactive: -0.18 | inactive: 0.055 | inactive: -0.249 | inactive: -0.026 | inactive: -0.079 | inactive: 0.043 | inactive: -0.158 | inactive: -0.006 | inactive: 0.042 | inactive: 0.01 | inactive: 0.109 | inactive: -0.441 |  | 
2 | MED1 (UniProt Q15648) | inactive: -0.051 | inactive: 0.116 | inactive: 0.042 | inactive: 0.056 | inactive: -0.056 | inactive: -0.063 | inactive: -0.039 | inactive: 0.016 | inactive: 0.114 | inactive: 0.077 | inactive: 0.011 | inactive: 0.014 | inactive: 0.043 | inactive: 0.04 | inactive: -0.025 | inactive: -0.05 | inactive: 0.11 | inactive: -0.078 |  | 
3 | MED13 (UniProt Q9UHV7) | inactive: 0.045 | inactive: 0.072 | inactive: 0.058 | inactive: 0.007 | inactive: -0.057 | inactive: 0 | inactive: -0.012 | inactive: 0.04 | inactive: 0.126 | inactive: 0.177 | inactive: -0.026 | inactive: 0.006 | inactive: 0.059 | inactive: -0.305 | inactive: -0.039 | inactive: 0.025 | inactive: 0.159 | inactive: -0.044 | inactive: 0.021 | inactive: -0.037
4 | MBNL1 (UniProt Q9NR56) | inactive: -0.036 | inactive: 0.007 | inactive: -0.061 | inactive: 0.01 | inactive: -0.085 | inactive: -0.004 | inactive: -0.001 | inactive: -0.026 | inactive: -0.012 | inactive: 0.018 | inactive: 0.005 | inactive: 0.046 | inactive: -0.024 | inactive: 0.018 | inactive: -0.004 | inactive: -0.061 | inactive: -0.079 | inactive: -0.018 | inactive: -0.066 | inactive: -0.081
5 | MFSD4B (UniProt Q5TF39) | inactive: 0.017 | inactive: -0.054 | inactive: -0.018 | inactive: 0.02 | inactive: -0.035 | inactive: 0.056 | inactive: 0.035 | inactive: 0.079 | inactive: -0.054 | inactive: 0.135 | inactive: -0.162 | inactive: -0.048 | inactive: -0.137 | inactive: 0.203 | inactive: -0.029 | inactive: 0.03 | inactive: 0.034 | inactive: -0.312 | inactive: -0.045 | inactive: 0.069
6 | MDH2 (UniProt P40926) | inactive: -0.02 | inactive: -0.042 | inactive: -0.026 | inactive: -0.028 | inactive: -0.001 | inactive: -0.013 | inactive: 0.005 | inactive: 0.015 | inactive: -0.01 | inactive: -0.011 | inactive: -0.011 | inactive: 0.076 | inactive: -0.007 | inactive: -0.049 | inactive: -0.02 | inactive: -0.03 | inactive: -0.029 | inactive: 0.039 | inactive: -0.001 | inactive: -0.009
7 | MEAF6 isoform 3 (UniProt Q9HAF1) | inactive: -0.037 | inactive: 0.051 | inactive: -0.034 | inactive: 0.061 | inactive: -0.073 | inactive: 0.022 | inactive: -0.051 | inactive: -0.023 | inactive: 0.022 | inactive: -0.038 | inactive: -0.053 | inactive: 0.014 | inactive: -0.08 | inactive: 0.004 | inactive: 0.03 | inactive: -0.048 | inactive: 0.007 | inactive: 0.025 | inactive: 0.013 | inactive: 0.028
8 | MECR (UniProt Q9BV79) | inactive: -0.042 | inactive: -0.011 | inactive: 0.053 | inactive: -0.13 | inactive: -0.012 | inactive: 0.054 | inactive: 0.008 | inactive: 0.028 | inactive: -0.017 | inactive: 0.051 | inactive: 0.008 | inactive: 0.089 | inactive: 0.135 | inactive: -0.087 | inactive: -0.057 | inactive: -0.024 | inactive: 0.01 | inactive: 0.002 | inactive: 0.107 | inactive: 0.007
9 | MEF2C isoform 5 (UniProt Q06413) | inactive: -0.089 | inactive: 0.06 | inactive: -0.143 | inactive: 0.024 | inactive: -0.065 | inactive: -0.061 | inactive: 0.035 | inactive: -0.049 | inactive: 0.086 | inactive: 0.075 | inactive: -0.014 | inactive: 0.029 | inactive: -0.151 | inactive: -0.011 | inactive: -0.149 | inactive: -0.185 | inactive: -0.016 | inactive: 0.012 | inactive: -0.069 | inactive: -0.131
10 | MGME1 (UniProt Q9BQP7) | inactive: 0.043 | inactive: -0.043 | inactive: -0.007 | inactive: -0.056 | inactive: 0.047 | inactive: -0.073 | inactive: 0.002 | inactive: 0.081 | inactive: 0.035 | inactive: 0.014 | inactive: 0.032 | inactive: -0.022 | inactive: 0.031 | inactive: -0.034 | inactive: 0 | inactive: 0.055 | inactive: -0.007 | inactive: -0.042 | inactive: 0.024 | inactive: -0.016
11 | MGAT5 (UniProt Q09328) | inactive: 0 | inactive: 0.116 | inactive: -0.012 | inactive: -0.075 | inactive: -0.021 | inactive: 0.001 | inactive: 0.128 | inactive: -0.009 | inactive: -0.014 | inactive: 0.038 | inactive: 0.104 | inactive: 0.043 | inactive: -0.071 | inactive: 0.05 | inactive: -0.01 | inactive: -0.01 | inactive: -0.007 | inactive: 0.055 | inactive: -0.023 | inactive: -0.015
12 | MIA3 (UniProt Q5JRA6) | inactive: -0.032 | inactive: 0.091 | inactive: 0.023 | inactive: 0.033 | inactive: -0.029 | inactive: 0.054 | inactive: 0.046 | inactive: -0.028 | inactive: -0.004 | inactive: 0 | inactive: 0.003 | inactive: 0.078 | inactive: -0.03 | inactive: 0.026 | inactive: -0.051 | inactive: -0.005 | inactive: -0.006 | inactive: 0.022 | inactive: -0.006 | inactive: 0.029
13 | MCM6 (UniProt Q14566) | inactive: -0.008 | inactive: -0.063 | inactive: 0.01 | inactive: -0.032 | inactive: -0.025 | inactive: -0.022 | inactive: -0.003 | inactive: 0.032 | inactive: 0.007 | inactive: -0.014 | inactive: 0.016 | inactive: -0.001 | inactive: 0.051 | inactive: -0.048 | inactive: -0.096 | inactive: 0.008 | inactive: -0.006 | inactive: 0.019 | inactive: 0.015 | inactive: 0.032
14 | METTL16 (UniProt Q86W50) | inactive: 0.026 | inactive: -0.063 | inactive: 0.068 | inactive: -0.074 | inactive: -0.058 | inactive: -0.079 | inactive: -0.046 | inactive: -0.006 | inactive: 0.08 | inactive: -0.051 | inactive: -0.11 | inactive: 0.082 | inactive: 0.012 | inactive: -0.078 | inactive: -0.069 | inactive: 0.026 | inactive: -0.004 | inactive: 0.031 | inactive: 0.018 | inactive: 0.03
15 | MBLAC2 (UniProt Q68D91) | inactive: -0.089 | inactive: 0.002 | inactive: 0.02 | inactive: 0.012 | inactive: -0.011 | inactive: 0.011 | inactive: 0.019 | inactive: 0.054 | inactive: 0.008 | inactive: 0.043 | inactive: -0.012 | inactive: 0.06 | inactive: 0.011 | inactive: -0.085 | inactive: 0.015 | inactive: -0.048 | inactive: 0.014 | inactive: 0.088 | inactive: 0.025 | inactive: -0.076
16 | MCCC1 (UniProt Q96RQ3) | inactive: -0.113 | inactive: -0.012 | inactive: 0.02 | inactive: -0.179 | inactive: 0 | inactive: 0.004 | inactive: 0.005 | inactive: 0.011 | inactive: 0.041 | inactive: 0.041 | inactive: 0.077 | inactive: 0.046 | inactive: 0.11 | inactive: -0.066 | inactive: -0.126 | inactive: 0.08 | inactive: -0.038 | inactive: 0.021 | inactive: 0 | inactive: -0.051

Only log2 fold change [4] and log2 fold change [5], for some of the entries so far:
Row	Target	log2 fold change [4]	log2 fold change [5]
3	MED13 (UniProt Q9UHV7)	inactive: 0.007	inactive: -0.057
4	MBNL1 (UniProt Q9NR56)	inactive: 0.01	inactive: -0.085
